Results published in PubChem BioAssay AID493014 (National Center for Advancing Translational Sciences (NCATS), 2011).
The list shows a part of the results. Shown are side measurements of this screen, not its main read-out; they come without a call. Compounds called inactive in the main read-out are mostly missing here. Potencies come from curve fits of mixed quality, noted in brackets.

Assay: qHTS Assay to Find Inhibitors of Chronic Active B-Cell Receptor Signaling
Conditions: ABC-DLBCL IkBa-CBG/CBR reporter, luminescence ratio (green luciferase fused to IkBa over red control in TMD8 lymphoma cells), 4 h
In short: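 Concentration-response series (up to 46 uM) were applied to TMD8 dual-reporter cells for 4 h at 37C with doxycycline. Green/red ratio, after filter-overlap correction, defined %Activity; red signal alone was normalised to basal cells and zero luminescence.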

[1] = measured here: CBR red luminescence, cell number

O=c1nc2c(-c3ccccc3F)n[nH]n2c2ccccc12
AC50 [1]: 0.282 µM [falling, full curve]

CCOC(=O)C1=C(C)NC(=S)NC1C (configuration not stated)
AC50 [1]: 0.794 µM [rising, full curve, poor fit]

CCc1cc2c(=O)c(-c3nc(C)cs3)coc2cc1O
AC50 [1]: 0.316 µM [falling, full curve]

COCC(C)Nc1ncnc2c1cnn2-c1ccc(Cl)cc1 (configuration not stated)
AC50 [1]: 11.2 µM [falling, partial curve, poor fit]

Cc1ccccc1OCCn1c(=O)sc2ccccc21
AC50 [1]: 3.66 µM [rising, single point]

O=C(c1cc(=O)c2ccccc2o1)N1CCN(c2ccccc2)CC1
AC50 [1]: 3.55 µM [rising, partial curve, poor fit]

S=C(Nc1ccc(Br)cc1)NC1CCCC1
AC50 [1]: 18.4 µM [falling, single point]

CCCC(=O)NC(c1ccc(N(C)C)cc1)c1c(O)ccc2ccccc12 (configuration not stated)
AC50 [1]: 32.6 µM [falling, single point]

CN(C1CCS(=O)(=O)C1)S(=O)(=O)c1ccccc1 (configuration not stated)
AC50 [1]: 3.55 µM [falling, partial curve, poor fit]

CCOC(=O)C1CCN(C(=O)c2cc3c(s2)-c2ccccc2OC3)CC1
AC50 [1]: 12.6 µM [falling, partial curve, poor fit]

Cc1ccc(C)c(CN2C(=O)c3ccccc3Sc3ccc(C(=O)NCCCOC(C)C)cc32)c1
AC50 [1]: 6.31 µM [falling, partial curve, poor fit]

NC(N)=N/N=C/c1ccc(OCc2ccccc2Cl)cc1
AC50 [1]: 8.91 µM [falling, partial curve, poor fit]

COCCC(=O)N1CCC(Oc2ccc(C(=O)NCc3cccc(C)n3)cc2)CC1
AC50 [1]: 2.82 µM [rising, partial curve, poor fit]

O=C(CCCN1C(=O)/C(=C\c2cccc(Br)c2)SC1=S)Nc1cccnc1
AC50 [1]: 6.31 µM [falling, partial curve]

O=C(NC1CCSc2ccccc21)c1ccc(F)c(S(=O)(=O)N2CCOCC2)c1 (configuration not stated)
AC50 [1]: 11.2 µM [falling, partial curve]

COc1cccc(CN2CCN(C(=S)NCc3ccc(Cl)cc3)CC2)c1
AC50 [1]: 22.4 µM [falling, single point]

COc1cccc(C2=NN(C(=O)c3ccc(C)o3)C(O)(C(F)(F)F)C2)c1 (configuration not stated)
AC50 [1]: 11.2 µM [falling, single point]

NC(=O)CC1C(=O)N(c2ccccc2)C(=S)N1NC(=O)c1ccccc1 (configuration not stated)
AC50 [1]: 8.91 µM [falling, partial curve]

Cc1cc(C)nc(N2N=C(CSc3ccc(Cl)cc3)CC2=O)n1
AC50 [1]: 35.5 µM [rising, single point]

O=C(Nc1cccc(C(F)(F)F)c1)c1cnc2n(c1=O)CCS2
AC50 [1]: 29.1 µM [rising, single point]

CC1CCN(C(=O)c2ccc(S(=O)(=O)N3CCOCC3)cc2)CC1
AC50 [1]: 0.126 µM [rising, full curve, poor fit]

COc1ccc(/C=N\NC(=O)C2CCCC2)cc1Br
AC50 [1]: 35.5 µM [falling, single point]

Cc1ccc2nc(C)c(C(=O)NN=C3CCCCCC3)n2c1
AC50 (measured here: IkBa-CBG green luminescence): 22.4 µM [falling, single point]

COc1ccccc1N(Cc1cc(=O)[nH]c2ccccc12)C(=O)c1ccccc1
AC50 [1]: 17.8 µM [falling, partial curve, poor fit]

COCCn1c(N)c(N(Cc2ccccc2)C(=O)c2oc3ccccc3c2C)c(=O)[nH]c1=O
AC50 [1]: 35.5 µM [rising, single point]

CC(Cc1cccs1)NC(=S)Nc1ccccc1 (configuration not stated)
AC50 [1]: 5.8 µM [rising, partial curve, poor fit]

CC(C)Cn1c(SCC(=O)N(C)C2CCS(=O)(=O)C2)nc2cc(Cl)ccc2c1=O (configuration not stated)
AC50 [1]: 6.51 µM [falling, partial curve, poor fit]

COc1cccc(/C=C2\SC(=O)N(CCC(=O)NCCCn3ccnc3)C2=O)c1
AC50 [1]: 14.1 µM [falling, partial curve, poor fit]

CC(=O)c1ccc(NC(=O)CCCC(=O)c2ccccc2)cc1
AC50 [1]: 0.355 µM [rising, full curve, poor fit]

Cc1nn(C2CCS(=O)(=O)C2)c(Cl)c1/C=C/C(=O)OCC(N)=O (configuration not stated)
AC50 [1]: 2.82 µM [falling, partial curve, poor fit]

CCn1c(COc2ccccc2OC)nnc1SCC(=O)NC1CCCC1
AC50 [1]: 5.62 µM [rising, single point]

Cc1cccc(N2CCC(N3CCN(C4CCCCC4)C(CCO)C3)CC2)c1C (configuration not stated)
AC50 [1]: 25.1 µM [falling, single point]

O=C(COC(=O)c1ccc(Cl)nc1)Nc1cccc(S(=O)(=O)N2CCCCC2)c1
AC50 [1]: 20.6 µM [rising, partial curve, poor fit]

Cn1nc(-c2ccc(Cl)cc2)cc1NC(=O)CSCC(=O)O
AC50 [1]: 35.5 µM [falling, single point]

COc1cccc(OCCn2cc(C(=O)c3ccco3)c3ccccc32)c1
AC50 [1]: 0.461 µM [falling, full curve]

COC(=O)C1CCN(C(=O)CSc2nc3ccc(OC)cc3[nH]2)CC1
AC50 [1]: 17.8 µM [falling, partial curve, poor fit]

CCOC(=O)C1(Cc2ccccc2C(F)(F)F)CCN(C2CCN(C(C)=O)CC2)CC1
AC50 [1]: 35.5 µM [falling, single point]

Cc1cccc(-c2nc(-c3ccncc3)no2)c1
AC50 [1]: 3.98 µM [rising, single point]

O=C(Cn1cccc1C(=O)c1ccccc1)NCc1ccccn1
AC50 [1]: 6.31 µM [rising, single point]

O=C1c2ccccc2C(=O)N1CCC#Cc1ccc2cc(CCCO)oc(=O)c2c1
AC50 [1]: 6.51 µM [rising, single point]

O=C(NCCN1CCCC1=O)Nc1ccccc1
AC50 [1]: 0.092 µM [rising, full curve, poor fit]

O=C(N/N=C/c1ccc(OCC(=O)N2CCCCC2)cc1)c1ccccc1
AC50 [1]: 20 µM [falling, partial curve, poor fit]
